PubChem BioAssay AID1259308, NCATS | 2017
In all, the deposit lists about 59,000 reagents; below is a random part of them. Of all reagents, about 1,510 (2.6%) got an active call. 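Calls use total luciferase alone and ignore viability, so some active siRNAs may act by altering cell number.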 Entries without a mark were called inactive. The numbers tell different reagents against one gene apart. Not all columns of the deposit are shown. No sequences are given here.

Test: 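Genes whose loss raises luciferase production in HEK293 cells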 (primary screen)
Cells: human HEK293 embryonic kidney cells stably expressing firefly luciferase (HEK-CMV-Luc2-Hygro)
Reagents: single siRNA against human genes, 0.8 pmol siRNA per well
Time to read-out: 72 h
Measured: 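Luciferase light (ONE-Glo) measured on one replicate plate set and viability (CellTiter-Glo) on the other, scaled to a negative control siRNA, with robust z-scores and luciferase per cell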
Direction: total luciferase, z-score: higher = more reporter protein produced
Hit rule: 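An siRNA counts as active if its total luciferase robust z-score exceeds 3; genes with two or more such siRNAs out of three were retested with fresh siRNAs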
Meaning of the calls: active = raised luciferase; inactive = no rise

total luciferase, z-score, by gene and reagent
TRIM59 (GeneID 286827): #1 3.46 (active); #2 1.27; #3 -0.765
PTOV1 (GeneID 53635): #1 0.802; #2 0.0903; #3 0.744
SRMS (GeneID 6725): #1 0.25; #2 3.07 (active); #3 -0.472
ELL (GeneID 8178): #1 -2.26; #2 -0.184; #3 -0.432
JUND (GeneID 3727): #1 -0.224; #2 2.13; #3 1.87
BBS9 (GeneID 27241): #1 -0.934; #2 -0.141; #3 -1.44
GPM6A (GeneID 2823): #1 0.236; #2 0.0886; #3 0.269
KRTAP4-1 (GeneID 85285): #1 -0.172; #2 0.509; #3 -0.388
PRODH2 (GeneID 58510): #1 3.43 (active); #2 0.0398; #3 -1.03
LDOC1 (GeneID 23641): #1 -0.571; #2 -1.83; #3 0.951
CARD6 (GeneID 84674): #1 -0.608; #2 -0.672; #3 -0.329
NAA30 (GeneID 122830): #1 -0.884; #2 -0.0721; #3 -1.37
OR6C3 (GeneID 254786): #1 2.33; #2 -0.15; #3 0.493

Called active, of those listed so far:
total luciferase, z-score, by gene and reagent
TRIM59 (GeneID 286827): #1 3.46 (active)
SRMS (GeneID 6725): #2 3.07 (active)
PRODH2 (GeneID 58510): #1 3.43 (active)
